Measured values from publication PMC6208443 (Nature Communications, 2018).

How the values were obtained:
[1] = test system: CHR17; experiment: Peptide affinity purification and mass spectrometry, CHR17; type: binding, Arabidopsis thaliana; conditions: pull-down of nuclear extracts of Arabidopsis flowers with 2 μg biotinylated peptide, 3 h, 4 °C; LC-MS/MS
[2] = test system: EDM2; experiment: Peptide affinity purification and mass spectrometry, EDM2; type: binding, Arabidopsis thaliana; conditions: pull-down of nuclear extracts of Arabidopsis flowers with 2 μg biotinylated peptide, 3 h, 4 °C; LC-MS/MS
Description: To extract the nuclear proteins for peptide affinity purification, 1 g of wild-type Arabidopsis flowers was harvested and ground in liquid nitrogen. […] The filtrates were centrifuged at 2000 g for 15 min at 4 °C to precipitate the nuclei. Nuclear pellets were washed two times with 1 ml of Honda buffer and then were resuspended in 600 μl of Nuclei Lysis Buffer (50 mM Tris-HCl pH 8.0, 150 mM NaCl, 1% NP40, 0.5 mM DTT, 1 mM PMSF, Roche protease inhibitor cocktail). After sonication, nuclei extracts were centrifuged at 20,000 g for 10 min at 4 °C. The supernatant was incubated with 2 μg of biotinylated histone peptides and Streptavidin Magnetic Beads (Thermo Scientific, 88816) for 3 h with rotation at 4 °C. […] After incubation, beads were washed three times with wash buffer 1 (320 mM NaCl, 50 mM Tris-HCl pH 8.0, 0.5% NP40), and three times with wash buffer 2 (150 mM NaCl, 50 mM Tris-HCl pH 8.0).
For LC-MS/MS analysis, IP beads with captured proteins were lysed in 12 mM sodium deoxycholate (SDC)-sodium lauroyl sarcosinate (SLS): 100 mM Tris-HCl (pH 8.5), 12 mM SDC, and 12 mM SLS. […] The dried peptides were resuspended in 30 μL of 0.3% formic acid (FA) with 3% acetonitrile (ACN), quantified by BCA assay (Thermo Fisher Scientific), and injected into an Easy-nLC 1000 (Thermo Fisher Scientific). […]

Row | Substance | Coverage (%) [1] | Coverage (%) [2]
1 | H3(1-21)K9me3: synthesized biotinylated H3(1-21)K9me3 peptide, EMD Millipore | 4.66% | –
2 | H3(1-21)K9me2: synthesized biotinylated H3(1-21)K9me2 peptide, EMD Millipore | – | 4.39%
3 | H3(1-21)K9me1: synthesized biotinylated H3(1-21)K9me1 peptide, EMD Millipore | – | 5.47%
